The list shows only some results of the screen, not a fair sample: it gathers tests that were run many times, whatever their T/C, doses with no T/C, and many T/C values between a quarter and a half above the control. Other doses and runs of a compound stand elsewhere. T/C: endpoint of the treated group in % of that of the vehicle group. Some entries give survivors of the animals treated and no T/C: the source holds a T/C of zero for them, seemingly a mark for toxic or unscored doses. Some survivor counts are full or nearly so, which does not show that the dose was tolerated: the source hardly ever lists a survival T/C far under the control, and the zero likely stands for such cases as well. Counts of survivors are from the toxicity check (mostly the fifth day) where no day follows; animals may have died later. Schedule codes are those of the source, taken here to give the interval after Q, in days (D) or hours (H), and the number of doses after X. Where survival is the endpoint, the PubChem record calls one and a half times the control and up active, and a quarter to a half above the control has no call in these data; cut-offs in other NCI protocols can differ. Some doses were run more than once; the results are listed from low to high. Some T/C values are followed by the survivors on the day toxicity was checked, most often the fifth; without a count, all were alive then.

The subject of the assay is BDF1 mice, P388 leukemia ip, median survival T/C. Nature of the assay: NCI In Vivo Anticancer Drug Screen. Data for tumor model P388 Leukemia (intraperitoneal) in B6D2F1 (BDF1) mice. Conditions: T/C endpoint: median survival time, higher T/C = longer survival. In short, it runs like this: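 Vehicle-dosed animals serve as the reference; survival of compound-dosed, tumour-implanted mice is divided by it.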

The mark [1] stands for this setting: dose: 200.0 mg/kg/injection, schedule: Q01DX009 (ip), vehicle: saline.
[2] abbreviates: dose: 400.0 mg/kg/injection, schedule: Q01DX009 (ip), vehicle: saline.
Setting [3] is: dose: 25.0 mg/kg/injection, schedule: Q01DX009 (ip), vehicle: Klucel (hydroxypropylcellulose) (HPC).
[4] abbreviates: dose: 100.0 mg/kg/injection, schedule: Q01DX009 (ip), vehicle: Klucel (hydroxypropylcellulose) (HPC).
Setting [5] is: dose: 100.0 mg/kg/injection, schedule: Q04DX003 (ip), vehicle: Klucel (hydroxypropylcellulose) (HPC).

Take `CSCC(N)CO` (centres undefined): the T/C (dose: 100.0 mg/kg/injection, schedule: Q04DX003 (ip), vehicle: saline) is 138 % of control.
For `COC(C)C(NC(=O)C1CCCN1C)C1OC(SCCOC(=O)c2ccccc2O)C(O)C(O)C1O` (centres undefined), under setting [1], the T/C was 126 % of control [2 of 3 alive] and the survivor count was 4 of 6. In addition, the survivor count under setting [2] is 0 of 3.
On to `CN(C)CCCNc1c2ccccc2nc2cccc([N+](=O)[O-])c12`, for which, where the note is “dose: 0.3 mg/kg/injection, schedule: Q04DX003 (ip), vehicle: saline”, the T/C is 140 % of control.
As for `O=C(C=C(C(F)(F)F)C(F)(F)F)c1cccc(Cl)c1`, the survivor count (dose: 25.0 mg/kg/injection, schedule: Q01DX009 (ip), vehicle: saline with Tween-80) is listed as 0 of 6.
Consider `O=C(NC(Cc1ccccc1)C(=O)O)OCc1ccccc1` (centres undefined), for which the T/C (dose: 200.0 mg/kg/injection, schedule: Q01DX009 (ip), vehicle: saline with Tween-80) was 125 % of control and the T/C (dose: 400.0 mg/kg/injection, schedule: Q01DX009 (ip), vehicle: saline with Tween-80) is 135 % of control.
Regarding `CCCCCCOP(=O)(N1CC1)N1CC1`, the survivor count was 4 of 6 (dose: 100.0 mg/kg/injection, schedule: Q01DX009 (ip), vehicle: saline); 4 of 6 (dose: 200.0 mg/kg/injection, schedule: Q04DX003 (ip), vehicle: saline with Tween-80); 1 of 6 (dose: 400.0 mg/kg/injection, schedule: Q04DX003 (ip), vehicle: saline with Tween-80).
With `NN=C(c1ccccc1)c1ccccc1`, the survivor count is listed as 6 of 6 (dose: 62.5 mg/kg/injection, schedule: Q04DX003 (ip), vehicle: Klucel (hydroxypropylcellulose) (HPC)); 5 of 6 (dose: 83.75 mg/kg/injection, schedule: Q01DX009 (ip), vehicle: Klucel (hydroxypropylcellulose) (HPC)); 2 of 6 (dose: 285.0 mg/kg/injection, schedule: Q04DX003 (ip), vehicle: Klucel (hydroxypropylcellulose) (HPC)).
For `COC(=O)C1CCCCC1C(=O)OC` (centres undefined), the T/C under setting [2] was 127 % of control.
In the case of `CCCCCCCCCC(C)CC(=O)NCCCN(C)CCCCN(C)C` (centres undefined), the survivor count by setting is: under setting [3], 0 of 6; (dose: 50.0 mg/kg/injection, schedule: Q01DX009 (ip), vehicle: Klucel (hydroxypropylcellulose) (HPC)) 0 of 6; under setting [4], 0 of 6; (dose: 200.0 mg/kg/injection, schedule: Q01DX009 (ip), vehicle: Klucel (hydroxypropylcellulose) (HPC)) 0 of 6.
As for `O=C(CBr)c1cccc(OC(=O)c2ccccc2)c1`, the survivor count under setting [5] is given as 2 of 6.
As for `CN=C(N)c1ccc(N=C(N)c2ccc(N=C(N)c3ccc(NC(=O)Nc4ccc(NC(=O)Nc5ccc(C(N)=Nc6ccc(C(N)=Nc7ccc(C(N)=NC)cc7)cc6)cc5)cc4)cc3)cc2)cc1`, the T/C runs as follows: (dose: 0.55 mg/kg/injection, schedule: Q01DX009 (ip), vehicle: saline with Tween-80) 126 % of control; (dose: 0.85 mg/kg/injection, schedule: Q01DX009 (ip), vehicle: saline with Tween-80) 126 % of control; (dose: 1.3 mg/kg/injection, schedule: Q01DX009 (ip), vehicle: saline with Tween-80) 133 and 134 % of control; (dose: 2.0 mg/kg/injection, schedule: Q01DX009 (ip), vehicle: saline with Tween-80) 140 % of control; (dose: 3.0 mg/kg/injection, schedule: Q01DX009 (ip), vehicle: saline with Tween-80) 148 % of control; (dose: 12.5 mg/kg/injection, schedule: Q01DX009 (ip), vehicle: saline with Tween-80) 140 % of control. Also, the T/C (dose: 37.0 mg/kg/injection, schedule: Q04DX003 (ip), vehicle: saline with Tween-80) was 145 % of control. Also, under “dose: 50.0 mg/kg/injection, schedule: Q01DX009 (ip), vehicle: saline with Tween-80”, the survivor count was 6 of 6.
For `NC(CS/C(Cl)=C/Cl)C(=O)O` (centres undefined), the survivor count (dose: 1.5 mg/kg/injection, schedule: Q01DX009 (ip), vehicle: saline) was 6 of 6; the survivor count (dose: 12.0 mg/kg/injection, schedule: Q01DX009 (ip), vehicle: saline) is on record as 6 of 6; the survivor count (dose: 40.0 mg/kg/injection, schedule: Q01DX009 (ip), vehicle: saline) is recorded as 2 of 6.
Consider `O=NN(CCCl)C(=O)NC12CC3CC(CC(C3)C1)C2`, for which the survivor count is recorded as 6 of 6 (dose: 265.0 mg/kg/injection, schedule: Q04DX003 (ip), vehicle: saline); 5 of 6 (dose: 400.0 mg/kg/injection, schedule: Q04DX003 (ip), vehicle: saline); 2 of 6 (dose: 600.0 mg/kg/injection, schedule: Q04DX003 (ip), vehicle: saline).
Turning to `COc1cc([C@@H]2c3cc4c(c(OC)c3C[C@H]3COC(=O)[C@@H]32)OCO4)cc(OC)c1OC`, the T/C was 136 % of control (dose: 12.5 mg/kg/injection, schedule: Q01DX010 (ip), vehicle: other); 126 % of control (dose: 25.0 mg/kg/injection, schedule: Q01DX001 (ip), vehicle: other); 145 % of control (dose: 25.0 mg/kg/injection, schedule: Q01DX010 (ip), vehicle: other); 126 % of control (dose: 50.0 mg/kg/injection, schedule: Q01DX001 (ip), vehicle: other); 136 % of control (dose: 100.0 mg/kg/injection, schedule: Q01DX001 (ip), vehicle: other). The survivor count runs as follows: (dose: 50.0 mg/kg/injection, schedule: Q01DX010 (ip), vehicle: saline) 0 of 6; (dose: 100.0 mg/kg/injection, schedule: Q01DX010 (ip), vehicle: other) 5 of 6; (dose: 100.0 mg/kg/injection, schedule: Q01DX010 (ip), vehicle: saline) 0 of 6.
On to `CC(C)(C)OC(=O)NNC(=O)c1ccc([N+](=O)[O-])cc1`, for which the survivor count under setting [4] is given as 6 of 6.
`C=C1CC(C2CCC(C)(C)C2)OC1=O` (centres undefined): where the note is “dose: 100.0 mg/kg/injection, schedule: Q04DX002 (ip), vehicle: saline with Tween-80”, the survivor count is recorded as 6 of 6.
Take `COc1ccc(Cc2c3ccccc3cc[n+]2C)cc1Oc1ccc(Cc2c3ccccc3cc[n+]2C)cc1`: the survivor count (dose: 3.13 mg/kg/injection, schedule: Q01DX009 (ip), vehicle: saline) is reported as 2 of 6.
For `COC(OC)c1[nH]c(=S)[nH]c(=O)c1Cc1cc([N+](=O)[O-])ccc1O`, where the note is “dose: 100.0 mg/kg/injection, schedule: Q04DX003 (ip), vehicle: saline with Tween-80”, the survivor count is reported as 6 of 6.
With `O=c1ncc(F)cn1C1OC(CO)C(O)C1O` (centres undefined), the survivor count is recorded as 6 of 6 (dose: 100.0 mg/kg/injection, schedule: Q01DX005 (ip), vehicle: Klucel (hydroxypropylcellulose) (HPC)); 6 of 6 (dose: 200.0 mg/kg/injection, schedule: Q01DX005 (ip), vehicle: Klucel (hydroxypropylcellulose) (HPC)); 6 of 6 (dose: 400.0 mg/kg/injection, schedule: Q01DX005 (ip), vehicle: Klucel (hydroxypropylcellulose) (HPC)); 4 of 6 (dose: 600.0 mg/kg/injection, schedule: Q01DX005 (ip), vehicle: Klucel (hydroxypropylcellulose) (HPC)).
On to `CN=C(N)c1ccc(NC(=O)c2ccc(C(=O)Nc3ccc(C(N)=NC)cc3)c(N)c2)cc1`, for which the T/C (dose: 5.0 mg/kg/injection, schedule: Q04DX003 (ip), vehicle: Klucel (hydroxypropylcellulose) (HPC)) is on record as 130, 135, 145 % of control and the T/C (dose: 9.0 mg/kg/injection, schedule: Q01DX009 (ip), vehicle: Klucel (hydroxypropylcellulose) (HPC)) was 131 % of control. Further, the survivor count (dose: 12.5 mg/kg/injection, schedule: Q01DX009 (ip), vehicle: Klucel (hydroxypropylcellulose) (HPC)) is 6 of 6; the survivor count under setting [3] was 1 of 6; the survivor count (dose: 25.0 mg/kg/injection, schedule: Q04DX003 (ip), vehicle: Klucel (hydroxypropylcellulose) (HPC)) is given as 5 of 6; the survivor count (dose: 50.0 mg/kg/injection, schedule: Q04DX003 (ip), vehicle: Klucel (hydroxypropylcellulose) (HPC)) is reported as 0 of 6; the survivor count under setting [5] is 0 of 6; the survivor count (dose: 200.0 mg/kg/injection, schedule: Q04DX003 (ip), vehicle: Klucel (hydroxypropylcellulose) (HPC)) is listed as 0 of 6. For the same compound, the survivor count (dose: 400.0 mg/kg/injection, schedule: Q04DX003 (ip), vehicle: Klucel (hydroxypropylcellulose) (HPC)) is given as 0 of 6.

These data come from PubChem BioAssay AID328 (DTP/NCI, 2004).
